PMC3091322
Results are given in words; binding and its absence hold for the method and conditions named. Binding seen in cells or lysates may run through a third protein. Some binding calls cover weakened binding; strength is not graded here. Each block holds one binder with its values, some of them ahead of it.

Columns and labels:
[1] = target: T1, FOXA2 (forkhead box A2) (human (endogenous in HepG2)) (UniProt Q9Y261); test: co-IP; endogenous proteins in precleared HepG2 nuclear lysate in RIPA buffer; antibody or IgG 1 μg per approximately 500 μg total protein with Protein G-agarose at 4°C overnight; washed twice with RIPA; western blot with the same FOXA antibodies, all six combinations
T1 sequence: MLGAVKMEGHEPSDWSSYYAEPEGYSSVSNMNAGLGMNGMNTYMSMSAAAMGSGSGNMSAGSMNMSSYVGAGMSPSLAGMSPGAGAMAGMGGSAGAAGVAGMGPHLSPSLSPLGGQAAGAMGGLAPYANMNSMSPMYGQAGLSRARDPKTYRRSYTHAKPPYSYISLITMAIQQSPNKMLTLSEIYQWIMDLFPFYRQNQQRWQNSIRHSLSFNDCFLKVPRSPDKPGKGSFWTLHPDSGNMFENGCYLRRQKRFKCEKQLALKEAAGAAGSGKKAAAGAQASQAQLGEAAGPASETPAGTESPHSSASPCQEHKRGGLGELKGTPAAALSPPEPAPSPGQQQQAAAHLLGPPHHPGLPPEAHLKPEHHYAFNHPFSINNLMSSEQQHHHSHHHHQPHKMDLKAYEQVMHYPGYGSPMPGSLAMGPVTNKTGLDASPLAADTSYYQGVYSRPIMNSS

[2] = target: T2, FOXA3 (forkhead box A3) (human (endogenous in HepG2)) (UniProt P55318); test: as above
T2 sequence: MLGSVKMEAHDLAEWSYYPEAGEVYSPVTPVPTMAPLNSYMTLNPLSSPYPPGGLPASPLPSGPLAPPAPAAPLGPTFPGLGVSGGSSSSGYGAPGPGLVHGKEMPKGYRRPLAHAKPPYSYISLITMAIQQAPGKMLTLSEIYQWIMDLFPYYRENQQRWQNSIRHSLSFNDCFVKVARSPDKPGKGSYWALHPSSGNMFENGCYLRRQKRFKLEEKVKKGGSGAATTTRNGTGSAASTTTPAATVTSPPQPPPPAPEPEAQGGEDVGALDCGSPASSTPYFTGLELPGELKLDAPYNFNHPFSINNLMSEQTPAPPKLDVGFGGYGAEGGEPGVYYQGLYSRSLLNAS

binding [1]: binds
B1: FOXA3 (forkhead box A3) (protein, UniProt P55318 1-350)
chain: T2 sequence

binding [1]: binds
binding [2]: no binding
B2: FOXA1 (forkhead box A1) (protein, UniProt P55317 1-472)
chain: MLGTVKMEGHETSDWNSYYADTQEAYSSVPVSNMNSGLGSMNSMNTYMTMNTMTTSGNMTPASFNMSYANPGLGAGLSPGAVAGMPGGSAGAMNSMTAAGVTAMGTALSPSGMGAMGAQQAASMNGLGPYAAAMNPCMSPMAYAPSNLGRSRAGGGGDAKTFKRSYPHAKPPYSYISLITMAIQQAPSKMLTLSEIYQWIMDLFPYYRQNQQRWQNSIRHSLSFNDCFVKVARSPDKPGKGSYWTLHPDSGNMFENGCYLRRQKRFKCEKQPGAGGGGGSGSGGSGAKGGPESRKDPSGASNPSADSPLHRGVHGKTGQLEGAPAPGPAASPQTLDHSGATATGGASELKTPASSTAPPISSGPGALASVPASHPAHGLAPHESQLHLKGDPHYSFNHPFSINNLMSSSEQQHKLDFKAYEQALQYSPYGSTLPASLPLGSASVTTRSPIEPSALEPAYYQGVYSRPVLNTS
